Experimental data as given in article PMC10290057.
Results are given in words; binding and its absence hold for the method and conditions named. In cells and extracts the contact can be indirect. These calls come from enrichment with a bait or labelling near it, and not all partners need be listed.

Chains of the proteins cited; added tags and fusions are not shown.
UniProt P11387: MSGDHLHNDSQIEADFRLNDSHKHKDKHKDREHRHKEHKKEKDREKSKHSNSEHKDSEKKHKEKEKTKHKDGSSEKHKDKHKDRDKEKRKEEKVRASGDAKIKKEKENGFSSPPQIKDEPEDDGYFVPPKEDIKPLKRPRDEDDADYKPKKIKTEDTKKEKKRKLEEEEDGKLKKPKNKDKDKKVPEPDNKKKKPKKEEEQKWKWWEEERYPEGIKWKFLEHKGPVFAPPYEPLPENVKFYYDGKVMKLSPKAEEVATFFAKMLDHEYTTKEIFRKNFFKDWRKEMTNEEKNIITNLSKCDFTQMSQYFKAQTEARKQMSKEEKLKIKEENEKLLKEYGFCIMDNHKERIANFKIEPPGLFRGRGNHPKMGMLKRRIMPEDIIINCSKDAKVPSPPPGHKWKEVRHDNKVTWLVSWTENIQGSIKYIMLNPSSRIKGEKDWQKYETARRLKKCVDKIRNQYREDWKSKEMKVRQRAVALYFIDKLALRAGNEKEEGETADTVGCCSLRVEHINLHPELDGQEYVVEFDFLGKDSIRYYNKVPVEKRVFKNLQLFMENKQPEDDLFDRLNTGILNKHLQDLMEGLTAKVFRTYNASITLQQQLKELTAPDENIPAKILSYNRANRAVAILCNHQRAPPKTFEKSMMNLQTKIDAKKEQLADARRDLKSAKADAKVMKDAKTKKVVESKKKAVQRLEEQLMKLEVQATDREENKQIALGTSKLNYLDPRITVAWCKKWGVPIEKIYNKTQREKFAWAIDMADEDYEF
UniProt Q92466: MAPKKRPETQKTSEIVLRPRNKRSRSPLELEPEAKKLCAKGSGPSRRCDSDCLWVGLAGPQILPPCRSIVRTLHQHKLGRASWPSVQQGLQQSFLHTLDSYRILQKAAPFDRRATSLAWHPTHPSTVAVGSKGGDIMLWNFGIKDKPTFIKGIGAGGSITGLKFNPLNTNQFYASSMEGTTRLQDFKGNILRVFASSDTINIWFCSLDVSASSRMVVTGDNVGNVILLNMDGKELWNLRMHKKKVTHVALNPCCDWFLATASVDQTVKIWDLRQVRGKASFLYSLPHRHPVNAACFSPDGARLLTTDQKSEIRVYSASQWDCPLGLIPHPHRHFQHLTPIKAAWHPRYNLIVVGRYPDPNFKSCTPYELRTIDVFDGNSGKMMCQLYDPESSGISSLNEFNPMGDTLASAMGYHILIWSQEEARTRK

target: N-terminally 6×His-tagged TOP1 (topoisomerase I), full length (human) (UniProt P11387); test: affinity purification with mass spectrometry; 6×His-TOP1 transiently expressed in HCT116 cells, TOP1 protein complexes purified by His pull-down, LC-MS/MS; empty vector sample as control

| Molecule | binding |
| --- | --- |
| DDB2 (from UniProt Q92466 1-427) | binds |
| DCAF7 (protein, UniProt P61962 1-342) MSLHGKRKEIYKYEAPWTVYAMNWSVRPDKRFRLALGSFVEEYNNKVQLVGLDEESSEFICRNTFDHPYPTTKLMWIPDTKGVYPDLLATSGDYLRVWRVGETETRLECLLNNNKNSDFCAPLTSFDWNEVDPYLLGTSSIDTTCTIWGLETGQVLGRVNLVSGHVKTQLIAHDKEVYDIAFSRAGGGRDMFASVGADGSVRMFDLRHLEHSTIIYEDPQHHPLLRLCWNKQDPNYLATMAMDGMEVVILDVRVPCTPVARLNNHRACVNGIAWAPHSSCHICTAADDHQALIWDIQQMPRAIEDPILAYTAEGEINNVQWASTQPDWIAICYNNCLEILRV | binds |
| DCAF13, endogenous (protein, UniProt Q9NV06 1-445) MKVKMLSRNPDNYVRETKLDLQRVPRNYDPALHPFEVPREYIRALNATKLERVFAKPFLASLDGHRDGVNCLAKHPEKLATVLSGACDGEVRIWNLTQRNCIRTIQAHEGFVRGICTRFCGTSFFTVGDDKTVKQWKMDGPGYGDEEEPLHTILGKTVYTGIDHHWKEAVFATCGQQVDIWDEQRTNPICSMTWGFDSISSVKFNPIETFLLGSCASDRNIVLYDMRQATPLKKVILDMRTNTICWNPMEAFIFTAANEDYNLYTFDMRALDTPVMVHMDHVSAVLDVDYSPTGKEFVSASFDKSIRIFPVDKSRSREVYHTKRMQHVICVKWTSDSKYIMCGSDEMNIRLWKANASEKLGVLTSREKAAKDYNQKLKEKFQHYPHIKRIARHRHLPKSIYSQIQEQRIMKEARRRKEVNRIKHSKPGSVPLVSEKKKHVVAVVK | binds |
